{"source": "PubChem BioAssay AID743121 (NCATS, 2013)", "assay": "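Knock-downs that sensitise breast cancer cells to camptothecin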 (primary screen)", "system": "MDA-MB-231 cells, a human breast cancer line", "reagent": "single siRNA against human genes, 20 nM siRNA (0.8 pmol per well)", "timing": "120 h (drug added 48 h after transfection, read 72 h later)", "treatment": "camptothecin 20 nM (about EC30) for 72 h; vehicle 0.1% DMSO in parallel plates", "measurement": "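Cell viability by ATP luminescence (CellTiter-Glo) as % of non-targeting siRNA wells, and the log2 ratio of viability without drug over viability with camptothecin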", "reading the numbers": "log2 vehicle/camptothecin viability: higher = stronger sensitisation to camptothecin; viability with camptothecin: higher = more viable cells", "hit rule": "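Each gene scored by redundant siRNA activity (RSA) over its individual siRNA ratios; a gene is called active at p < 0.001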", "note": "In all, the deposit lists about 26,000 reagents; below is a part drawn at random. In the full data, 167 (0.63%) are marked active. 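Calls are per gene from RSA p-values that are not deposited; an individual active-marked siRNA can sensitise only weakly.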 The numbers tell different reagents against one gene apart. Not all columns of the deposit are shown. No sequences are given here."}
{"target": "TRIM10 (GeneID 10107)", "reagent": 1, "log2 vehicle/camptothecin viability": 0.128, "viability with camptothecin (% of control)": 48.9, "outcome": "inactive"}
{"target": "TRIM10 (GeneID 10107)", "reagent": 2, "log2 vehicle/camptothecin viability": -0.553, "viability with camptothecin (% of control)": 67.7, "outcome": "inactive"}
{"target": "TRIM10 (GeneID 10107)", "reagent": 3, "log2 vehicle/camptothecin viability": -0.0821, "viability with camptothecin (% of control)": 80.5, "outcome": "inactive"}
{"target": "TRIM10 (GeneID 10107)", "reagent": 4, "log2 vehicle/camptothecin viability": 0.085, "viability with camptothecin (% of control)": 78.8, "outcome": "inactive"}
{"target": "KCNJ12 (GeneID 3768)", "reagent": 1, "log2 vehicle/camptothecin viability": -0.593, "viability with camptothecin (% of control)": 15.9, "outcome": "inactive"}
{"target": "KCNJ12 (GeneID 3768)", "reagent": 2, "log2 vehicle/camptothecin viability": -0.531, "viability with camptothecin (% of control)": 48.9, "outcome": "inactive"}
{"target": "KCNJ12 (GeneID 3768)", "reagent": 3, "log2 vehicle/camptothecin viability": -0.144, "viability with camptothecin (% of control)": 31.2, "outcome": "inactive"}
{"target": "KCNJ12 (GeneID 3768)", "reagent": 4, "log2 vehicle/camptothecin viability": 0.176, "viability with camptothecin (% of control)": 95.4, "outcome": "inactive"}
{"target": "F2RL3 (GeneID 9002)", "reagent": 1, "log2 vehicle/camptothecin viability": -0.0858, "viability with camptothecin (% of control)": 99.5, "outcome": "inactive"}
{"target": "F2RL3 (GeneID 9002)", "reagent": 2, "log2 vehicle/camptothecin viability": -0.446, "viability with camptothecin (% of control)": 74.5, "outcome": "inactive"}
{"target": "F2RL3 (GeneID 9002)", "reagent": 3, "log2 vehicle/camptothecin viability": -0.703, "viability with camptothecin (% of control)": 35.4, "outcome": "inactive"}
{"target": "F2RL3 (GeneID 9002)", "reagent": 4, "log2 vehicle/camptothecin viability": -0.564, "viability with camptothecin (% of control)": 78.3, "outcome": "inactive"}
{"target": "SLAMF6 (GeneID 114836)", "reagent": 1, "log2 vehicle/camptothecin viability": -0.294, "viability with camptothecin (% of control)": 73.2, "outcome": "inactive"}
{"target": "SLAMF6 (GeneID 114836)", "reagent": 2, "log2 vehicle/camptothecin viability": -0.389, "viability with camptothecin (% of control)": 39.2, "outcome": "inactive"}
{"target": "SLAMF6 (GeneID 114836)", "reagent": 3, "log2 vehicle/camptothecin viability": 0.0212, "viability with camptothecin (% of control)": 105, "outcome": "inactive"}
{"target": "SLAMF6 (GeneID 114836)", "reagent": 4, "log2 vehicle/camptothecin viability": 0.00327, "viability with camptothecin (% of control)": 62.9, "outcome": "inactive"}
{"target": "ADRA1A (GeneID 148)", "reagent": 1, "log2 vehicle/camptothecin viability": 0.0511, "viability with camptothecin (% of control)": 90.7, "outcome": "inactive"}
{"target": "ADRA1A (GeneID 148)", "reagent": 2, "log2 vehicle/camptothecin viability": 0.122, "viability with camptothecin (% of control)": 81.7, "outcome": "inactive"}
{"target": "ADRA1A (GeneID 148)", "reagent": 3, "log2 vehicle/camptothecin viability": -0.302, "viability with camptothecin (% of control)": 97.7, "outcome": "inactive"}
{"target": "ADRA1A (GeneID 148)", "reagent": 4, "log2 vehicle/camptothecin viability": 0.308, "viability with camptothecin (% of control)": 57.5, "outcome": "inactive"}
{"target": "SPRTN (GeneID 83932)", "reagent": 1, "log2 vehicle/camptothecin viability": 0.12, "viability with camptothecin (% of control)": 93.4, "outcome": "inactive"}
{"target": "SPRTN (GeneID 83932)", "reagent": 2, "log2 vehicle/camptothecin viability": -0.103, "viability with camptothecin (% of control)": 113, "outcome": "inactive"}
{"target": "SPRTN (GeneID 83932)", "reagent": 3, "log2 vehicle/camptothecin viability": 0.067, "viability with camptothecin (% of control)": 101, "outcome": "inactive"}
{"target": "PRKCH (GeneID 5583)", "reagent": 1, "log2 vehicle/camptothecin viability": -0.114, "viability with camptothecin (% of control)": 61.1, "outcome": "inactive"}
{"target": "PRKCH (GeneID 5583)", "reagent": 2, "log2 vehicle/camptothecin viability": -0.282, "viability with camptothecin (% of control)": 82.3, "outcome": "inactive"}
{"target": "PRKCH (GeneID 5583)", "reagent": 3, "log2 vehicle/camptothecin viability": -0.246, "viability with camptothecin (% of control)": 87.3, "outcome": "inactive"}
{"target": "PRKCH (GeneID 5583)", "reagent": 4, "log2 vehicle/camptothecin viability": 0.0322, "viability with camptothecin (% of control)": 96.4, "outcome": "inactive"}
{"target": "CCL7 (GeneID 6354)", "reagent": 1, "log2 vehicle/camptothecin viability": -0.123, "viability with camptothecin (% of control)": 119, "outcome": "inactive"}
{"target": "CCL7 (GeneID 6354)", "reagent": 2, "log2 vehicle/camptothecin viability": 0.0221, "viability with camptothecin (% of control)": 62.9, "outcome": "inactive"}
{"target": "CCL7 (GeneID 6354)", "reagent": 3, "log2 vehicle/camptothecin viability": 0.641, "viability with camptothecin (% of control)": 58.1, "outcome": "inactive"}
{"target": "CCL7 (GeneID 6354)", "reagent": 4, "log2 vehicle/camptothecin viability": -0.136, "viability with camptothecin (% of control)": 46.1, "outcome": "inactive"}
{"target": "SCNN1B (GeneID 6338)", "reagent": 1, "log2 vehicle/camptothecin viability": -0.663, "viability with camptothecin (% of control)": 69.2, "outcome": "inactive"}
{"target": "SCNN1B (GeneID 6338)", "reagent": 2, "log2 vehicle/camptothecin viability": -0.366, "viability with camptothecin (% of control)": 82.4, "outcome": "inactive"}
{"target": "SCNN1B (GeneID 6338)", "reagent": 3, "log2 vehicle/camptothecin viability": -0.21, "viability with camptothecin (% of control)": 87.9, "outcome": "inactive"}
{"target": "SCNN1B (GeneID 6338)", "reagent": 4, "log2 vehicle/camptothecin viability": 0.394, "viability with camptothecin (% of control)": 32.4, "outcome": "inactive"}

Records above whose target name starts with C or c:
{"target": "CCL7 (GeneID 6354)", "reagent": 1, "log2 vehicle/camptothecin viability": -0.123, "viability with camptothecin (% of control)": 119, "outcome": "inactive"}
{"target": "CCL7 (GeneID 6354)", "reagent": 2, "log2 vehicle/camptothecin viability": 0.0221, "viability with camptothecin (% of control)": 62.9, "outcome": "inactive"}
{"target": "CCL7 (GeneID 6354)", "reagent": 3, "log2 vehicle/camptothecin viability": 0.641, "viability with camptothecin (% of control)": 58.1, "outcome": "inactive"}
{"target": "CCL7 (GeneID 6354)", "reagent": 4, "log2 vehicle/camptothecin viability": -0.136, "viability with camptothecin (% of control)": 46.1, "outcome": "inactive"}
